Assay results published in US20070123465A1, “Oligomeric peptides and their use for the treatment of hiv infections” (IPF PHARMACEUTICALS GMBH, priority 2004, published 2007).
pIC50: −log10 of the molar value. Some results were stated once for a whole list of compounds, not compound by compound. Bridge positions count the residues as written; N and C are the ends. Peptide text beside a SMILES is read from it. I, II: the chains in the order shown.

System: HIV-1 NL4-3
Type: cell-based
Settings: HIV-1 strain NL4-3; read-out: IC50 (bounds)
Description: P4-CCR5 indicator cells (Charneau et al., 1994; Journal of Molecular Biology 241, 651-662) expressing the primary CD4 receptor and both major HIV-1 entry cofactors CXCR4 and CCR5, were used to evaluate whether the oligomeric peptides according to the invention are potent inhibitors of HIV-1 infection. These cells contain the β-galactosidase reporter gene under the control of the HIV-1 promoter. Thus, activation of the β-galactosidase reporter gene allows to measure the efficiency of HIV-1 infection and thus to quantitate the potency of HIV-1 inhibitors (Detheux M. et al., 2000; Journal of Experimental Medicine 192, 1501-1508; Muinch et al., 2002; Antimicrobial Agents and Chemotherapy 46, 982-990).
To perform a typical infection assay, P4-CCR5 cells (Charneau et al., 1994; Journal of Molecular Biology 241, 651-662; Charneau et al., Virology. 1994 205, 247-53) were kept in RPMI 1640 medium supplemented with 10 volume % FCS. […] Virus stocks were generated by the calcium coprecipitation method as described (Detheux et al., 3 Exp Med. 192:1501-8; 2000), and the p24 antigen levels were quantitated with an HIV p24 ELISA kit obtained through the NIH AIDS Reagent Program. […] Three days after infection the cells were lysed, and infectivity was quantitated using the Galacto-Light Plus™ chemiluminescence reporter assay kit (Tropix, Bedford, Mass.) as recommended by the manufacturer. […]

Compound	pIC50
CC[C@H](C)[C@H](NC(=O)[C@H](C)NC(=O)[C@H](CCC(=O)O)NC(=O)[C@@H](N)CC(C)C)C(=O)N1CCC[C@H]1C(=O)N[C@@H](CCSC)C(=O)N[C@@H](CSSC[C@H](NC(=O)[C@H](CCSC)NC(=O)[C@@H]1CCCN1C(=O)[C@@H](NC(=O)[C@H](C)NC(=O)[C@H](CCC(=O)O)NC(=O)[C@@H](N)CC(C)C)[C@@H](C)CC)C(=O)N[C@H](C(=O)N1CCC[C@H]1C(=O)N1CCC[C@H]1C(=O)N[C@@H](CCC(=O)O)C(=O)N[C@@H](Cc1ccccc1)C(=O)N[C@@H](CC(C)C)C(=O)N[C@@H](Cc1ccccc1)C(=O)NCC(=O)N[C@@H](CCCCN)C(=O)N1CCC[C@H]1C(=O)N[C@@H](Cc1ccccc1)C(=O)N[C@H](C(=O)N[C@@H](Cc1ccccc1)C(=O)O)C(C)C)[C@@H](C)CC)C(=O)N[C@H](C(=O)N1CCC[C@H]1C(=O)N1CCC[C@H]1C(=O)N[C@@H](CCC(=O)O)C(=O)N[C@@H](Cc1ccccc1)C(=O)N[C@@H](CC(C)C)C(=O)N[C@@H](Cc1ccccc1)C(=O)NCC(=O)N[C@@H](CCCCN)C(=O)N1CCC[C@H]1C(=O)N[C@@H](Cc1ccccc1)C(=O)N[C@H](C(=O)N[C@@H](Cc1ccccc1)C(=O)O)C(C)C)[C@@H](C)CC [VIR-577] (I: H-LEAIPMCIPPEFLFGKPFVF-OH / II: H-LEAIPMCIPPEFLFGKPFVF-OH; disulfide I:7-II:7)	≥ 5.19
I: H-LEAIPMSIPPEFLFGKPFVFKG-OH / II: H-LEAIPMSIPPEFLFGKPFVF (amide I:21-II:C) [VIR-574]	≥ 5.19
